These are yes or no findings as the source states them, for the method shown. In cells and extracts the contact can be indirect. Some entries that bind do so weakly or less than the wild type. Tags and fused reporters may be left off the sequences shown.
T1: Spo0M:DsRed fusion protein (B. subtilis) (UniProt P71088)
T1 sequence: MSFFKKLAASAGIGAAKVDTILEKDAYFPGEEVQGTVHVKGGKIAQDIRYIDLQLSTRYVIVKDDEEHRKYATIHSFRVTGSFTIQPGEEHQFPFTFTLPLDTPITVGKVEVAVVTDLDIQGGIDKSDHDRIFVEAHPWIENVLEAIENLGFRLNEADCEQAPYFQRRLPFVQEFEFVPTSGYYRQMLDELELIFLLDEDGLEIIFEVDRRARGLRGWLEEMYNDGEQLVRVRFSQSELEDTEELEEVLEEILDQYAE

T2: FtsZ (B. subtilis (endogenous in B. subtilis strains)) (UniProt P17865)
T2 sequence: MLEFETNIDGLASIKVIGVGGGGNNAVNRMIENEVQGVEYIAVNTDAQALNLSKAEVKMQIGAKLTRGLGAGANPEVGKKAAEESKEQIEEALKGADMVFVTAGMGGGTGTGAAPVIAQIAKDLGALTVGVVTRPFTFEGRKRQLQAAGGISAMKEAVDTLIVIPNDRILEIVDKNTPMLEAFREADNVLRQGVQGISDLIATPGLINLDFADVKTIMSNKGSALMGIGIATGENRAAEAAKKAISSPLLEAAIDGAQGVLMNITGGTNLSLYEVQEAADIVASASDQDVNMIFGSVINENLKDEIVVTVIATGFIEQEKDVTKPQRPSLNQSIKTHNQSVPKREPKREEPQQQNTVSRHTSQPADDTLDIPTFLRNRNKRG


What was measured:
[1] = biological target: T1, Spo0M:DsRed fusion protein (B. subtilis); assay: co-IP; 1 mg total protein from lysate of the Spo0M:DsRed or induced GFP:ZapA/Spo0M:DsRed strain with anti-DsRed antibody 3 h at 4°C, then protein A beads 3 h at 4°C; Western blot with anti-FtsZ or anti-GFP; control with an unspecific antibody
[2] = biological target: T2, FtsZ (B. subtilis (endogenous in B. subtilis strains)); assay: co-IP; reverse order: 1 mg total protein from lysate of the Spo0M:DsRed strain with anti-FtsZ antibody 3 h at 4°C, then protein A beads 3 h at 4°C; Western blot with anti-DsRed; control with a non-specific antibody

binding [1] | binding [2] | Binder
binds | – | GFP:ZapA (protein, UniProt P94542 1-85) MSDGKKTKTTVDIYGQHFTIVGEESRAHMRYVAGIVDDKMREINEKNPYLDINKLAVLTAVNVVHDYVKLQEKCEKLERQLKEKD
binds | – | FtsZ (protein, UniProt P17865 1-382) MLEFETNIDGLASIKVIGVGGGGNNAVNRMIENEVQGVEYIAVNTDAQALNLSKAEVKMQIGAKLTRGLGAGANPEVGKKAAEESKEQIEEALKGADMVFVTAGMGGGTGTGAAPVIAQIAKDLGALTVGVVTRPFTFEGRKRQLQAAGGISAMKEAVDTLIVIPNDRILEIVDKNTPMLEAFREADNVLRQGVQGISDLIATPGLINLDFADVKTIMSNKGSALMGIGIATGENRAAEAAKKAISSPLLEAAIDGAQGVLMNITGGTNLSLYEVQEAADIVASASDQDVNMIFGSVINENLKDEIVVTVIATGFIEQEKDVTKPQRPSLNQSIKTHNQSVPKREPKREEPQQQNTVSRHTSQPADDTLDIPTFLRNRNKRG
– | binds | Spo0M:DsRed fusion protein (protein, UniProt P71088 1-258) MSFFKKLAASAGIGAAKVDTILEKDAYFPGEEVQGTVHVKGGKIAQDIRYIDLQLSTRYVIVKDDEEHRKYATIHSFRVTGSFTIQPGEEHQFPFTFTLPLDTPITVGKVEVAVVTDLDIQGGIDKSDHDRIFVEAHPWIENVLEAIENLGFRLNEADCEQAPYFQRRLPFVQEFEFVPTSGYYRQMLDELELIFLLDEDGLEIIFEVDRRARGLRGWLEEMYNDGEQLVRVRFSQSELEDTEELEEVLEEILDQYAE

From PMC5325327
